The test deals with T1, Prp2p, LexA-bait fusion (budding yeast) (UniProt P20095).
T1 sequence: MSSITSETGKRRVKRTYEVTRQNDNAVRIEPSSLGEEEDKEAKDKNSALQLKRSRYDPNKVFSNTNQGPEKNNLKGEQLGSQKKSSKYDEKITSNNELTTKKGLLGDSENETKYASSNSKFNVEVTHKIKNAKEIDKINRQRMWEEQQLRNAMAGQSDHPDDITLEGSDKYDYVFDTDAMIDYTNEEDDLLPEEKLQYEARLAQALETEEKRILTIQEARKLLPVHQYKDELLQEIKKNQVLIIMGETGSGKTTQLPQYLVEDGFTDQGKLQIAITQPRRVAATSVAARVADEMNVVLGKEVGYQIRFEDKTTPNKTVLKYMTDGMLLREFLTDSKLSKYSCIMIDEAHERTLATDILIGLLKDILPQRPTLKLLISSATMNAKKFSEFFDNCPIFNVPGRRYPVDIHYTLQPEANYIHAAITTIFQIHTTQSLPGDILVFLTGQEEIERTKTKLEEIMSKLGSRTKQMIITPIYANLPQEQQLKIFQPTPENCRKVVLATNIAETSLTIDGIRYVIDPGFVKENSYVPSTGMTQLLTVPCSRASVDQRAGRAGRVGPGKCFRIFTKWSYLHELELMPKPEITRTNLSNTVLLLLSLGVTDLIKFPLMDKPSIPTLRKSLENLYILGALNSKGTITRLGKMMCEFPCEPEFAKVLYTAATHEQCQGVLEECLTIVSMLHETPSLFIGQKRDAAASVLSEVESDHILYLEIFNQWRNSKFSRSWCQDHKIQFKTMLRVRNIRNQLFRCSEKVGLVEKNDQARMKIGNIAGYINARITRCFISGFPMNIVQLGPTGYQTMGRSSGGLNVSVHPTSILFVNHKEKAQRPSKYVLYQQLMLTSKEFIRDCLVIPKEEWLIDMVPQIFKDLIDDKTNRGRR
Description: two-hybrid; screen of mutated H2-Sec63-2 Gal4AD-preys against LexA-bait Prp2p or Prp16p in L40ΔG yeast; HIS3 reporter, -LWH medium with different concentrations of 3-AT, 30 or 14°C; colony size compared with WT; prey plasmids re-transformed to confirm.

The record followed here is publication PMC4267655, “Brr2p carboxy-terminal Sec63 domain modulates Prp16 splicing RNA helicase” (Nucleic Acids Research, 2014).

No constants are given. Whether binding was seen depends on the method and setting. Binding can be weak; no strength is given. Tags and fused reporters may be left off the sequences shown.

Turning to “Brr2 H2-Sec63-2p L2120V, Gal4AD-prey fusion (budding yeast) (domain or fragment)”, the binding result was “binds”.
